Hit rate of the full screen: of about 360,000 compounds, about 1,700 (0.47%) were called active. Inconclusive results, whose numbers are uncertain, are shown with a selection of clear calls. Calls come from the whole dose curve; as a rule, active = well fitted inhibition curve with a large enough effect; inconclusive = small, poorly fitted or top-dose-only effect; inactive = no such curve, though single readings can be large or run the other way. A potency beside an inconclusive call is a rough fit, not a confirmed value.
molecular target: Bifunctional 3'-5' exonuclease/ATP-dependent helicase WRN (Homo sapiens) (UniProt Q14191); test: qHTS for Inhibitors of WRN Helicase; conditions: WRN helicase unwinding, fluorescent forked duplex, kinetic; activity change, negative = inhibition: at 114 µM (top of the series) unless noted; note: nearly all actives have a fitted effect of over 55% in size
Summary of the method: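 Enzyme (20 nM final) and test compound sit together 15 min at room temperature before substrate addition. Substrate is a single-forked duplex oligonucleotide (100 nM) labelled with fluorophore and quencher, with 2 mM ATP; helicase unwinding raises red fluorescence, read kinetically.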
% is set by controls: 0 for no effect and ±100 for the full control effect; potency is the fitted concentration of half-maximal effect.

Sequences of proteins named here, by UniProt entry; tags and fusion partners are left off.
UniProt Q14191, whole entry, looked up: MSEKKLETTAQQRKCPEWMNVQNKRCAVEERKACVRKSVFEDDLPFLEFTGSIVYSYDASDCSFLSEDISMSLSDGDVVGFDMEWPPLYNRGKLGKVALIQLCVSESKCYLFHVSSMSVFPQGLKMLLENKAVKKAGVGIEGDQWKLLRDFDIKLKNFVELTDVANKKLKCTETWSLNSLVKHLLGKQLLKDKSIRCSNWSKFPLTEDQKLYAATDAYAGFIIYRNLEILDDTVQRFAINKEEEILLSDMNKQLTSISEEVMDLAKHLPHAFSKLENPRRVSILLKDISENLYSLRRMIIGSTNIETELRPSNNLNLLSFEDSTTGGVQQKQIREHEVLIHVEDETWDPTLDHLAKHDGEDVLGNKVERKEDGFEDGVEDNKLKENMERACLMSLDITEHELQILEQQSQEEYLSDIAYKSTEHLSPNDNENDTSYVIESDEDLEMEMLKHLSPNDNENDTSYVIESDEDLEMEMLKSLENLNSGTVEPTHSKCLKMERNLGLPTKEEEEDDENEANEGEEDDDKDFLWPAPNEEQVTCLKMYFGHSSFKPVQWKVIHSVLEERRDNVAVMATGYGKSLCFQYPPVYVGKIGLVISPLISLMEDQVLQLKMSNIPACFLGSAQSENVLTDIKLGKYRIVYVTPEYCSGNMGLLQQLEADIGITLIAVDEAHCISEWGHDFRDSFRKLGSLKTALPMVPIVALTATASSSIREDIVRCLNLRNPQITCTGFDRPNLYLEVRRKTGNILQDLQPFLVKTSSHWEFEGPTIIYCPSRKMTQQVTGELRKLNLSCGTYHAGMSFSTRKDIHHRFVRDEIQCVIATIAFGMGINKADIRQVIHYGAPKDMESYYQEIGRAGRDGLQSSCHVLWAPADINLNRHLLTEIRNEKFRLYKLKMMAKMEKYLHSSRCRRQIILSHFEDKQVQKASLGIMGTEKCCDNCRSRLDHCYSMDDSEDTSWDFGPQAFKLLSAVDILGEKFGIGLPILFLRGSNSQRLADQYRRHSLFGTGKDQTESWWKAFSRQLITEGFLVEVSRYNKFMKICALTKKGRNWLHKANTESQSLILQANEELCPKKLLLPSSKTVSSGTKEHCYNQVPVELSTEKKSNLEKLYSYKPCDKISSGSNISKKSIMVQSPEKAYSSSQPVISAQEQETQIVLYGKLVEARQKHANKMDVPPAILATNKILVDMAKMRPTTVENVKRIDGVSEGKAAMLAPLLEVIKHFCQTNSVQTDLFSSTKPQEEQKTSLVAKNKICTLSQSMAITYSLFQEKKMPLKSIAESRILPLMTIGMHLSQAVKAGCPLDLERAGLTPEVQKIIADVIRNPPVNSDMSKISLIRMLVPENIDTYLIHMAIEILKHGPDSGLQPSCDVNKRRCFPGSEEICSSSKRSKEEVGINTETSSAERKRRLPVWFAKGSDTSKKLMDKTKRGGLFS

| Compound | Potency | activity change, negative = inhibition |
| --- | --- | --- |
| CCOC(=O)c1c(C)oc2c1c(CN1CCN(CCO)CC1)c(O)c1ccccc12 | inconclusive: 50.1 µM [inhibitor, partial curve] | – |
| Cc1nnc2n(c1=O)N=C(c1ccc(Cl)cc1)CS2 | inconclusive: 28.2 µM [inhibitor, single point] | – |
| COc1ccc(CNC(=O)CN(CCC(C)C)S(=O)(=O)c2ccc3c(c2)OCCO3)cc1 | – | inactive: -14.3% [at 57.1 µM] |
| O=C(O)c1ccc2c(c1)C(=O)N(c1cccc(C(=O)/C=C/c3ccccc3)c1)C2=O | inconclusive: 39.8 µM [inhibitor, partial curve, poor fit] | – |
| CCOC(=O)c1c(CSc2ccccc2)n(C)c2cc(Br)c(OCC(O)CNC(CO)(CO)CO)cc12 (stereo not drawn) | inconclusive: 56.2 µM [inhibitor, partial curve] | – |
| Cc1ccc(S(=O)(=O)N(C)c2ccc(C(=O)NCCc3ccccc3)cc2)cc1 | inconclusive: 89.1 µM [inhibitor, single point] | – |
| O=c1[nH]c(CN2CCc3ccccc32)nc2scc(-c3cccs3)c12 | – | inactive: -16.8% |
| COc1ccc(OC)c(-c2csc(NC(=O)COC(=O)c3ccc(NC(=O)CC#N)cc3)n2)c1 | inconclusive: 50.1 µM [inhibitor, partial curve] | – |
| CCN(CC)c1ccc(C=C2C(=O)OC3(CCCC3)OC2=O)cc1 | active: 50.1 µM | – |
| Cc1ccccc1-c1cn(-c2ccccc2)c(=S)[nH]1 | inconclusive: 89.1 µM [inhibitor, single point] | – |
| CCn1c(SCC(=O)Nc2ccc(F)cc2F)nc2c(c1=O)SCC2 | inconclusive: 89.1 µM [inhibitor, single point] | – |
| CN1CCN(CC(=O)NN(Cc2ccccc2)c2ccccc2)CC1 | inconclusive: 8.91 µM [inhibitor, full curve] | – |
| COc1ccc(S(=O)(=O)N2CCN(CC(=O)Nc3c(C)n[nH]c3C)CC2)cc1OC | inconclusive: 22.4 µM [inhibitor, full curve] | – |
| CCCC(=O)N1CCCC(c2nc(-c3cccs3)no2)C1 (stereo not drawn) | – | inactive: 5.25% |
| Cn1c(NC(=O)c2ccc(F)cc2)c(-c2cccs2)c(=O)c2ccccc21 | inconclusive: 11.2 µM [inhibitor, full curve, poor fit] | – |
| Oc1ccc(-c2cn3cc(C(F)(F)F)ccc3n2)cc1 | inconclusive: 10 µM [inhibitor, partial curve] | – |
| Cc1ccccc1Nc1cc2ccccc2c(=O)[nH]1 | inconclusive: 89.1 µM [inhibitor, single point] | – |
| CN(C)Cc1c(O)c(Cl)cc2c3c(c(=O)oc12)CCCC3 | inconclusive: 50.1 µM [inhibitor, partial curve] | – |
| NS(=O)(=O)c1ccc(CCNC(=O)COC(=O)Cc2ccc([N+](=O)[O-])cc2)cc1 | – | inactive: -2.26% |
| Cc1ccc(NC(=O)CN2CCN(C(=O)c3ccco3)CC2)cc1S(=O)(=O)N(C)C | inconclusive: 17.8 µM [inhibitor, single point] | – |
| O=c1cc(NS(=O)(=O)c2ccccc2)nc(SCc2c(Cl)cccc2Cl)[nH]1 | inconclusive: 39.8 µM [inhibitor, single point] | – |
| O=C(CCc1ccc(O)c(O)c1)N/N=C/c1cc2c(cc1[N+](=O)[O-])OCO2 | inconclusive: 35.5 µM [inhibitor, partial curve] | – |
| Cc1cccn2c(=O)c(/C=C(\C#N)C(=O)NC3CCS(=O)(=O)C3)c(Oc3ccccc3Cl)nc12 (stereo not drawn) | – | inactive: -12.3% |

In another format: entries from further up
Compound | Potency | activity change, negative = inhibition
CCOC(=O)c1c(C)oc2c1c(CN1CCN(CCO)CC1)c(O)c1ccccc12 | inconclusive: 50.1 µM [inhibitor, partial curve] | –
Cc1nnc2n(c1=O)N=C(c1ccc(Cl)cc1)CS2 | inconclusive: 28.2 µM [inhibitor, single point] | –
COc1ccc(CNC(=O)CN(CCC(C)C)S(=O)(=O)c2ccc3c(c2)OCCO3)cc1 | – | inactive: -14.3% [at 57.1 µM]
O=C(O)c1ccc2c(c1)C(=O)N(c1cccc(C(=O)/C=C/c3ccccc3)c1)C2=O | inconclusive: 39.8 µM [inhibitor, partial curve, poor fit] | –
CCOC(=O)c1c(CSc2ccccc2)n(C)c2cc(Br)c(OCC(O)CNC(CO)(CO)CO)cc12 (stereo not drawn) | inconclusive: 56.2 µM [inhibitor, partial curve] | –
Cc1ccc(S(=O)(=O)N(C)c2ccc(C(=O)NCCc3ccccc3)cc2)cc1 | inconclusive: 89.1 µM [inhibitor, single point] | –
O=c1[nH]c(CN2CCc3ccccc32)nc2scc(-c3cccs3)c12 | – | inactive: -16.8%
COc1ccc(OC)c(-c2csc(NC(=O)COC(=O)c3ccc(NC(=O)CC#N)cc3)n2)c1 | inconclusive: 50.1 µM [inhibitor, partial curve] | –
CCN(CC)c1ccc(C=C2C(=O)OC3(CCCC3)OC2=O)cc1 | active: 50.1 µM | –
CCn1c(SCC(=O)Nc2ccc(F)cc2F)nc2c(c1=O)SCC2 | inconclusive: 89.1 µM [inhibitor, single point] | –
COc1ccc(S(=O)(=O)N2CCN(CC(=O)Nc3c(C)n[nH]c3C)CC2)cc1OC | inconclusive: 22.4 µM [inhibitor, full curve] | –
Cn1c(NC(=O)c2ccc(F)cc2)c(-c2cccs2)c(=O)c2ccccc21 | inconclusive: 11.2 µM [inhibitor, full curve, poor fit] | –
Oc1ccc(-c2cn3cc(C(F)(F)F)ccc3n2)cc1 | inconclusive: 10 µM [inhibitor, partial curve] | –
Cc1ccccc1Nc1cc2ccccc2c(=O)[nH]1 | inconclusive: 89.1 µM [inhibitor, single point] | –
CN(C)Cc1c(O)c(Cl)cc2c3c(c(=O)oc12)CCCC3 | inconclusive: 50.1 µM [inhibitor, partial curve] | –
NS(=O)(=O)c1ccc(CCNC(=O)COC(=O)Cc2ccc([N+](=O)[O-])cc2)cc1 | – | inactive: -2.26%
Cc1ccc(NC(=O)CN2CCN(C(=O)c3ccco3)CC2)cc1S(=O)(=O)N(C)C | inconclusive: 17.8 µM [inhibitor, single point] | –
O=c1cc(NS(=O)(=O)c2ccccc2)nc(SCc2c(Cl)cccc2Cl)[nH]1 | inconclusive: 39.8 µM [inhibitor, single point] | –
O=C(CCc1ccc(O)c(O)c1)N/N=C/c1cc2c(cc1[N+](=O)[O-])OCO2 | inconclusive: 35.5 µM [inhibitor, partial curve] | –
Cc1cccn2c(=O)c(/C=C(\C#N)C(=O)NC3CCS(=O)(=O)C3)c(Oc3ccccc3Cl)nc12 (stereo not drawn) | – | inactive: -12.3%

The listing continues:

| Compound | Potency | activity change, negative = inhibition |
| --- | --- | --- |
| CCNc1nc(NCC)n2c(SCC(=O)Nc3ccc(F)cc3)nnc2n1 | inconclusive: 6.31 µM [inhibitor, partial curve, poor fit] | – |
| CCn1cc(C(=O)NCc2ccco2)c(=O)c2cc(F)c(N3CCN(C(=O)c4ccco4)CC3)cc21 | inconclusive: 50.1 µM [inhibitor, partial curve] | – |
| N#CC1=C(N)Oc2ccc3ccc(O)cc3c2C1c1ccsc1 (stereo not drawn) | inconclusive: 31.6 µM [inhibitor, single point] | – |
| O=c1c2c([N+](=O)[O-])cc([N+](=O)[O-])cc2sn1Cc1ccccc1 | active: 20 µM | – |
| COc1cccc(OC)c1C(=O)NCC12CC3CC(C1)CC(CNC(=O)c1c(OC)cccc1OC)(C3)C2 | – | inactive: 9.31% |
| COC(C(=O)Nc1ccnn1C1CCN(Cc2nccs2)CC1)c1ccccc1 (stereo not drawn) | inconclusive: 89.1 µM [inhibitor, single point] | – |
| CCOC(=O)c1c(N2C(=O)Nc3cc(Cl)c(Cl)cc3N2O)sc2c1CCCCC2 | inconclusive: 50.1 µM [inhibitor, partial curve] | – |
| CCOc1ccc(-n2c(N)c(C(=O)N3CCN(C)CC3)sc2=S)cc1 | – | inactive: -0.465% |
| CCOC(=O)C1=C(C)NC(=S)NC1/C=C/c1ccccc1 (stereo not drawn) | inconclusive: 31.6 µM [inhibitor, single point] | – |
| Nc1[nH]c(=O)[nH]c(=O)c1N=Cc1ccccc1 | inconclusive: 12.6 µM [inhibitor, partial curve] | – |
| O=C1CC2(CCN(C(=O)c3ccccc3Br)CC2)Oc2ccccc21 | – | inactive: 2.43% |
| CCCCNS(=O)(=O)c1ccc2nc(SCC(=O)Nc3sccc3C#N)[nH]c2c1 | inconclusive: 22.4 µM [inhibitor, partial curve] | – |
| O=C(CCSCCC(=O)NCc1ccco1)NCc1ccco1 | active: 13.4 µM | – |
| COc1cc(C2NC(=O)c3ccccc3O2)ccc1OC(C)C (stereo not drawn) | inconclusive: 50.1 µM [inhibitor, partial curve] | – |
| O=C(Nc1ccccc1C(=O)O)c1cc(S(=O)(=O)N2CCOCC2)c(Br)s1 | inconclusive: 39.8 µM [inhibitor, single point] | – |
| O=C(CN1C(=O)/C(=C/c2ccccc2F)Sc2ccccc21)NCc1cccnc1 | inconclusive: 79.4 µM [inhibitor, single point] | – |
| CNc1nc(N/N=C/c2ccc([N+](=O)[O-])cc2)nc(Nc2ccccc2)n1 | inconclusive: 56.2 µM [inhibitor, partial curve, poor fit] | – |
| COC(=O)C(Cc1c[nH]c2ccccc12)NC(=O)c1cc(-c2ccc(OC)c(OC)c2)oc1C (stereo not drawn) | active: 89.1 µM | – |
| COC(=O)C1=C(C)N(CCCC(=O)O)C(=O)NC1c1cccc(OC)c1 (stereo not drawn) | – | inactive: 2.3% |
| CCOc1ccc(/C=C/C(=O)OCC(=O)c2ccccc2OC)cc1OC | inconclusive: 39.8 µM [inhibitor, full curve, poor fit] | – |
| CCOC(=O)c1ccc(NC(=O)C2CC(O)CN2S(=O)(=O)c2ccc(C)cc2)cc1 (stereo not drawn) | – | inactive: 4.83% |
| O=C(NC(=S)Nc1ccc(F)c([N+](=O)[O-])c1)c1ccccc1F | inconclusive: 39.8 µM [inhibitor, partial curve] | – |
| CCCc1nnc(NC(=O)CS(=O)(=O)c2ccccc2)s1 | – | inactive: -2.17% |

| Compound | Potency | activity change, negative = inhibition |
| --- | --- | --- |
| COc1cccc(C(=O)NC(=S)Nc2ccc(Cl)cc2C(=O)O)c1 | – | inactive: 7.71% |
| CC(=O)Oc1ccc(C(=O)Nc2cccc(C(=O)c3cccc(NC(=O)c4ccc(OC(C)=O)cc4)c3)c2)cc1 | inconclusive: 12.6 µM [inhibitor, full curve] | – |
| Cc1ccc(S(=O)(=O)N2CCN(C(=O)CCC(=O)Nc3ccc(Br)c(C)c3)CC2)cc1 | inconclusive: 25.1 µM [inhibitor, single point] | – |
| Cc1ccc(CSCC(=O)N/N=C/c2ccc(OCC(=O)Nc3ccc(C)cc3)cc2)cc1 | inconclusive: 100 µM [inhibitor, partial curve, poor fit] | – |
| O=S(=O)(O)c1cc(O)c(N=Nc2ccc(O)cc2O)c2ccccc12 | active: 39.8 µM | – |
| CC(C)C[C@@H]1CC2=C(C(=O)OC(C)(C)O2)[C@H](CCc2ccccc2)O1 | – | inactive: -4.79% |
| Clc1ccccc1-c1nnn(Cc2ccc(-c3nn[nH]n3)cc2)n1 | – | inactive: -22.3% |
| O=C(/C=C/c1ccco1)OCc1nnc(-c2ccccc2)o1 | – | inactive: -17.7% |
| NNC(=O)c1oc2nc(-c3ccco3)cc(-c3ccco3)c2c1N | inconclusive: 56.2 µM [inhibitor, partial curve] | – |
| O=C(CCN1CCOCC1)c1ccc2c(c1)OCCO2 | inconclusive: 31.6 µM [inhibitor, partial curve] | – |
| Cc1cc(C(=O)Nc2ccc(S(=O)(=O)N3CCOCC3)cc2)c(C)o1 | inconclusive: 39.8 µM [inhibitor, single point] | – |
| CSC1=NSC2=NC(=O)/C(=C/c3coc4ccc(O)cc4c3=O)C(=N)N12 | active: 44.7 µM | – |
| O=C1S/C(=C\C=C\c2ccco2)C(=O)N1c1ccc(O)cc1 | inconclusive: 50.1 µM [inhibitor, partial curve] | – |
| Cc1ccn2c(=O)nc(SCC(=O)NCc3ccco3)nc2c1 | inconclusive: 50.1 µM [inhibitor, partial curve, poor fit] | – |
| NC(=O)c1ccc(-n2nnnc2SCC(=O)c2ccc(O)c(O)c2)cc1 | active: 35.5 µM | – |
| CCC1=Nc2ccccc2NC2=C1C(=O)CCC2 | inconclusive: 79.4 µM [inhibitor, partial curve] | – |
| CC(=O)C1=C(O)C(=O)N(Cc2ccccc2)C1c1ccc(Cl)cc1 (stereo not drawn) | – | inactive: -2.92% |
| O=C(O)c1c2c(nc3ccc(S(=O)(=O)N4CCC(C(=O)NCc5ccccc5)CC4)cc13)CCCC2 | – | inactive: -12% |
| CN1CCC(Oc2ccccc2Sc2ccccc2)CC1 | inconclusive: 25.1 µM [inhibitor, single point] | – |
| CC(=O)n1c2c(c3ccccc31)OC(N)=C(C#N)C2c1cccc(Cl)c1Cl (stereo not drawn) | – | inactive: -1.85% |
| CC(=O)Nc1ccc(NC(=S)NC(=O)c2ccc(-c3ccccc3)cc2)cc1 | – | inactive: 5.64% |
| O=C(Nc1cccc(N=Cc2cc(Cl)cc(Br)c2O)c1)c1ccco1 | inconclusive: 79.4 µM [inhibitor, partial curve] | – |

— PubChem BioAssay AID651768 (National Center for Advancing Translational Sciences (NCATS), 2012)
